Data from the supplement of paper PMC10849652.
The list shows a part of the results.

Chains of the proteins cited; added tags and fusions are not shown. Lines headed by an entry give the natural chain unless they say otherwise; changes in a name come on top.
UniProt P17483: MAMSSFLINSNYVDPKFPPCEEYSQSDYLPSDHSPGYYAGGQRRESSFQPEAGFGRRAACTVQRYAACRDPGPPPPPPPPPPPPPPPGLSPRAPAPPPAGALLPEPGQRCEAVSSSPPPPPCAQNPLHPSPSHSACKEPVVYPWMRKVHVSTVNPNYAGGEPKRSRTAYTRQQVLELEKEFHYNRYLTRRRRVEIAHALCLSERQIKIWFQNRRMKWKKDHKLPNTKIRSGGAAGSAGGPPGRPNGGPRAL
UniProt Q9Y2F5: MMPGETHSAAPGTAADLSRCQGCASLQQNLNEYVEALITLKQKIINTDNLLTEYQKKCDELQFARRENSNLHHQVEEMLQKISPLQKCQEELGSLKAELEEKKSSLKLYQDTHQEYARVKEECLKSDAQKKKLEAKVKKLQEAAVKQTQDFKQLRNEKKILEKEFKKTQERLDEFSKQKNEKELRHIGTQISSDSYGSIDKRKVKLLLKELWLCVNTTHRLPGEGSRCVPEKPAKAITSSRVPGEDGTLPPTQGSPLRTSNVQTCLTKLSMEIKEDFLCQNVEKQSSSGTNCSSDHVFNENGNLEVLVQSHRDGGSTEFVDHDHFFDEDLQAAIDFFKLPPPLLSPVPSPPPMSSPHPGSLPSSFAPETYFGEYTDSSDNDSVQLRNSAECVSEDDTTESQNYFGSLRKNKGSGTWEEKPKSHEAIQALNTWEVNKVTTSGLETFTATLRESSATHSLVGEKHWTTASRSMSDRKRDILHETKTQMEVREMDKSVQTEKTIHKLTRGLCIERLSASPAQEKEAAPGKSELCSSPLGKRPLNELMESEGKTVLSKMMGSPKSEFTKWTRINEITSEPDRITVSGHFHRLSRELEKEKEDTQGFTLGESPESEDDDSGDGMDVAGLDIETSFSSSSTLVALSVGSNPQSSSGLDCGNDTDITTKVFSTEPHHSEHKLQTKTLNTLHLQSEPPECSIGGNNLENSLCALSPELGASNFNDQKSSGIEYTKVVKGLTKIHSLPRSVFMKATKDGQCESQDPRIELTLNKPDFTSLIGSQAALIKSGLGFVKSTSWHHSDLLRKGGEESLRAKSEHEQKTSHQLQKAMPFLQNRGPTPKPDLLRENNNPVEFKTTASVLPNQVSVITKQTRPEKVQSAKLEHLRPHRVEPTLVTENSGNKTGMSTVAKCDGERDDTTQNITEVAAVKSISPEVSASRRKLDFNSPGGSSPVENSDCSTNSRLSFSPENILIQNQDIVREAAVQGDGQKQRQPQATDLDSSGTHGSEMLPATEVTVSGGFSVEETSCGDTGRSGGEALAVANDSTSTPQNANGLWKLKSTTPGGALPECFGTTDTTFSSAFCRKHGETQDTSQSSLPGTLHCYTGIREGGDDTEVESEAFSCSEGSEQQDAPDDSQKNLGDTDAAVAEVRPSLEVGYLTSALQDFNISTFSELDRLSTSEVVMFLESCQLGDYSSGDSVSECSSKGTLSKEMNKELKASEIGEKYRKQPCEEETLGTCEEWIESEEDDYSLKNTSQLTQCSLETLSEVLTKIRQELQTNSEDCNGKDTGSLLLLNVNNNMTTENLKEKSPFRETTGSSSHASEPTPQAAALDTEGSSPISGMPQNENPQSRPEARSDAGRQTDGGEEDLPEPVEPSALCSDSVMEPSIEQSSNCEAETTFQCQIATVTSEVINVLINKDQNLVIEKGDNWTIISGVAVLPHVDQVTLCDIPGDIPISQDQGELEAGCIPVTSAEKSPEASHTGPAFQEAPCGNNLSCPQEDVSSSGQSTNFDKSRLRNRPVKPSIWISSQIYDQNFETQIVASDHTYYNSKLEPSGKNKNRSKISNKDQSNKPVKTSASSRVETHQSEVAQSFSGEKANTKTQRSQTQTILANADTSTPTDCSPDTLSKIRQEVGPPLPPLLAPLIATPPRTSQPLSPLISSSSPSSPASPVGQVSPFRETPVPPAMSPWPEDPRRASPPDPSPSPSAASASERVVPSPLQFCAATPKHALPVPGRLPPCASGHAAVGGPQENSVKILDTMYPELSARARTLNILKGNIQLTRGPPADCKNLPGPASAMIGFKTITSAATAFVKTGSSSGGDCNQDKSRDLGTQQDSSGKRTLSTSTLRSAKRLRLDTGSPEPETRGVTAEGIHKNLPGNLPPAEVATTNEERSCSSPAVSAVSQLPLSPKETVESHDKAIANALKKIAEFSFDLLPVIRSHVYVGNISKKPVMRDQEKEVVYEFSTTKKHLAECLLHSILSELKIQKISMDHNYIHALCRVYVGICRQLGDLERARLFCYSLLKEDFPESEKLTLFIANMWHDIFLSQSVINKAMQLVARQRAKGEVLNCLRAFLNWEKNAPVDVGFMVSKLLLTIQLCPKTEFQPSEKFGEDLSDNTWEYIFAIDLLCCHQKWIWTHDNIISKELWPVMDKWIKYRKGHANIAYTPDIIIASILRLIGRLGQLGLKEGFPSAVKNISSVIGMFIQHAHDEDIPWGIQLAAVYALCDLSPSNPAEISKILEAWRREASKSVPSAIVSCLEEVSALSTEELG
UniProt Q9NWT6: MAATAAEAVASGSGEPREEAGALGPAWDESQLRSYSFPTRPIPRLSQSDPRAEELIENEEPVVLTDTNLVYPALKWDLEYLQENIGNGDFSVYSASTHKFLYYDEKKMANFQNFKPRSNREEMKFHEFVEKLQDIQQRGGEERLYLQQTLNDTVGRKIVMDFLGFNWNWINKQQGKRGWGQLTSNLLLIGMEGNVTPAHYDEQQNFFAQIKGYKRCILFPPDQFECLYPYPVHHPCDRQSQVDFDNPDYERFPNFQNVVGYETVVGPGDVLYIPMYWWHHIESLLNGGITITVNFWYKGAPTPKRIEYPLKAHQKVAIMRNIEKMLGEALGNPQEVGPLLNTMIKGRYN
UniProt P04439, whole entry, looked up: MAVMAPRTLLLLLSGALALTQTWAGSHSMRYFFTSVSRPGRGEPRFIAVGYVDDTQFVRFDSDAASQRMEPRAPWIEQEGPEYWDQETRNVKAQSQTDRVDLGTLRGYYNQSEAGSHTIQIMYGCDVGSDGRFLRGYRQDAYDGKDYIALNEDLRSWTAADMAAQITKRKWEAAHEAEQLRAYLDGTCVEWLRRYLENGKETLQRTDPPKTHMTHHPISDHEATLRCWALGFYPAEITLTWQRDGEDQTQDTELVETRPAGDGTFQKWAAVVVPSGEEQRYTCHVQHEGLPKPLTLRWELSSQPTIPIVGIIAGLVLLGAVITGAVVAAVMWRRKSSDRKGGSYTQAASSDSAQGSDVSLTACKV
UniProt P41134: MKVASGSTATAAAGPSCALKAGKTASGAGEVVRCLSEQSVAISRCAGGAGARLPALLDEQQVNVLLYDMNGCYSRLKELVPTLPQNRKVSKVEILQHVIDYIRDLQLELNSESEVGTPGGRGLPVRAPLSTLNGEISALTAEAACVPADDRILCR
UniProt Q9NSC5: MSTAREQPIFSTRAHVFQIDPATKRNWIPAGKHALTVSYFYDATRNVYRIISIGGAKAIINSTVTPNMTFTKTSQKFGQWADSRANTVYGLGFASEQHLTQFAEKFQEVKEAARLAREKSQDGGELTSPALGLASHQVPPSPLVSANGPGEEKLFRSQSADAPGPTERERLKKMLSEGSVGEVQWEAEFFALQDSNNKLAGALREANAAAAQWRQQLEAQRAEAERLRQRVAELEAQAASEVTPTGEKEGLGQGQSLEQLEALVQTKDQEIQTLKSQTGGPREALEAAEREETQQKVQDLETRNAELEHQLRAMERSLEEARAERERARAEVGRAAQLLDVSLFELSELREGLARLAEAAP
UniProt O75506: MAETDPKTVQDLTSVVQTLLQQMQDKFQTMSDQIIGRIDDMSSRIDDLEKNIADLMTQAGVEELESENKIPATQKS
UniProt Q9NQG7: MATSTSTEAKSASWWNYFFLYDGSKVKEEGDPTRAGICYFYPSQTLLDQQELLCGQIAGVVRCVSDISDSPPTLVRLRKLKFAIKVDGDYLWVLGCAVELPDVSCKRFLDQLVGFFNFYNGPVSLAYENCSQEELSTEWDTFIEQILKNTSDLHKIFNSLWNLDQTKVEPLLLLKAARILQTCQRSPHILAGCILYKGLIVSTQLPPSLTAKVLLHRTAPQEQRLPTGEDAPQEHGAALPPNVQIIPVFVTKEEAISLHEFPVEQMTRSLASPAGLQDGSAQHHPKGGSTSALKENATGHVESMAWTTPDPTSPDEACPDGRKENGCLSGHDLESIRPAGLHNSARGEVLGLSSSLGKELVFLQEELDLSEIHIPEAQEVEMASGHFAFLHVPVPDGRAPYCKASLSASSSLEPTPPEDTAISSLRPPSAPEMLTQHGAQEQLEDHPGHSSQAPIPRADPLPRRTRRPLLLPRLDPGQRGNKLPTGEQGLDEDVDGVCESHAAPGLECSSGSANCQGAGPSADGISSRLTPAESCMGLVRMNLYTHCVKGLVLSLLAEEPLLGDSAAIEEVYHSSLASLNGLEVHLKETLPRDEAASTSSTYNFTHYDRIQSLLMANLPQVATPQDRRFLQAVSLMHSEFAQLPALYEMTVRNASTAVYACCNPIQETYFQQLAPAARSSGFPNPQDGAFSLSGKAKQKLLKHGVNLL
UniProt P54868: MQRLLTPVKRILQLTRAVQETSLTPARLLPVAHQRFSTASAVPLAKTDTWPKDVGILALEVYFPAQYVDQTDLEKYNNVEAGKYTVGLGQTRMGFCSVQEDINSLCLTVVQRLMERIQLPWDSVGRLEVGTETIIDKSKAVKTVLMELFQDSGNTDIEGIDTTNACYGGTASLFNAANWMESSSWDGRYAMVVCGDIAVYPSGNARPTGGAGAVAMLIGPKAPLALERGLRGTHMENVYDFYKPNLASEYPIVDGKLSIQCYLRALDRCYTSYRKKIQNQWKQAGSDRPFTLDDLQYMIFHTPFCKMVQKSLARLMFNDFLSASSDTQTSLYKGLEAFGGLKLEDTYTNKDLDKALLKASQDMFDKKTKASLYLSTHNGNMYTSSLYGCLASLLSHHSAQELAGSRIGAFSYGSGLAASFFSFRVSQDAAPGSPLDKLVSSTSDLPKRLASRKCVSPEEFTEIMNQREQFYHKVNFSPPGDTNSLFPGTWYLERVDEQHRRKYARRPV

Experiments:
Assay in all cases: log2 fold change, soluble protein after heating vs DMSO (PISA); higher = thermal stabilisation; K562 cells, 10 uM, 30 min; active = over 0.2 and 3.5 SD of the protein, either way, in both replicates (recomputed)
gefitinib = compound: COc1cc2ncnc(Nc3ccc(F)c(Cl)c3)c2cc1OCCCN1CCOCC1 [gefitinib]
Outline: (§1)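 K562 cells at 2×10^6 cells/mL were treated for 30 min with 10 μM compound, and aliquots were heated for 3 min over 48°C-58°C before pooling. Extraction used PBS with 0.5% NP-40 at 4°C, and soluble protein was the supernatant after 21,000xg for 90 min, measured by TMTpro 16plex LC-MS/MS with channel sums equalised. Thermal stability values, relative to control samples and from duplicates, are log2 fold changes.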

[1] = compound: COC1=CC=C(C=C1)CN2C=CC3=C2C=C(C=C3)C(=O)NO
Outline: as §1

filanesib = compound: CON(C)C(=O)N1N=C(c2cc(F)ccc2F)S[C@@]1(CCCN)c1ccccc1 [filanesib]
Outline: as §1

alisertib = compound: COc1cc(Nc2ncc3c(n2)-c2ccc(Cl)cc2C(c2c(F)cccc2OC)=NC3)ccc1C(=O)O [alisertib]
Outline: as §1

[2] = compound: COc1cccc2cc(-c3nc([C@H]4CC[C@H](C(=O)O)CC4)n4ncnc(N)c34)[nH]c12
Outline: as §1

zotarolimus = compound: CO[C@H]1C[C@@H]2CC[C@@H](C)[C@@](O)(O2)C(=O)C(=O)N2CCCC[C@H]2C(=O)O[C@H]([C@H](C)C[C@@H]2CC[C@H](n3cnnn3)[C@H](OC)C2)CC(=O)[C@H](C)/C=C(\C)[C@@H](O)[C@@H](OC)C(=O)[C@H](C)C[C@H](C)/C=C/C=C/C=C/1C [zotarolimus]
Outline: as §1

idasanutlin = compound: COc1cc(C(=O)O)ccc1NC(=O)[C@@H]1N[C@@H](CC(C)(C)C)[C@](C#N)(c2ccc(Cl)cc2F)[C@H]1c1cccc(Cl)c1F [idasanutlin]
Outline: as §1

[3] = compound: COc1cc2nc(-c3cc(F)ccc3O)nc(N[C@@H]3CNC[C@H]3C(C)(C)O)c2cc1OC
Outline: as §1

lapatinib = compound: CS(=O)(=O)CCNCc1ccc(-c2ccc3ncnc(Nc4ccc(OCc5cccc(F)c5)c(Cl)c4)c3c2)o1 [lapatinib]
Outline: as §1

pictilisib = compound: CS(=O)(=O)N1CCN(Cc2cc3nc(-c4cccc5[nH]ncc45)nc(N4CCOCC4)c3s2)CC1 [pictilisib]
Outline: as §1

Measured: log2 fold change

HOXB4 (UniProt P17483)
inactive: gefitinib 0.183

ICE1 (UniProt Q9Y2F5)
inactive: [1] -0.224 | filanesib 0.147 | alisertib -0.059 | gefitinib -0.015 | [2] 0.156

HTD2 (UniProt P86397)
inactive: filanesib 0.062 | zotarolimus 0.086 | idasanutlin -0.012 | alisertib -0.003 | [3] 0.036 | [2] 0.026 | lapatinib 0.018 | pictilisib -0.024

HIST2H2AA3 (UniProt Q6FI13)
inactive: [1] 0.46 | zotarolimus -0.048 | idasanutlin 0.584 | alisertib 0 | gefitinib -0.016 | [2] -0.125 | pictilisib -0.235

HIF1AN (UniProt Q9NWT6)
inactive: [1] -0.044 | idasanutlin -0.093 | alisertib -0.131 | [3] 0.012 | gefitinib 0.034 | [2] -0.118 | lapatinib -0.029 | pictilisib 0.068

HLA-A isoform 2 (UniProt P04439)
inactive: zotarolimus 0.082

ID1 (UniProt P41134)
inactive: alisertib 0.634 | gefitinib -0.005 | [2] 0.069

HOMER3 (UniProt Q9NSC5)
inactive: filanesib 0.046 | zotarolimus -0.01 | alisertib -0.034 | [2] 0.079

HSBP1 (UniProt O75506)
inactive: gefitinib 0.209

HPS4 isoform 4 (UniProt Q9NQG7)
inactive: [1] -0.12 | gefitinib 0.175 | pictilisib -0.408

HMGCS2 (UniProt P54868)
inactive: filanesib -0.147
